## Library screening results

Measurements from “University of Dundee, Small-Polar-MMV Screening Library” (2021), ChEMBL document CHEMBL3988442.

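Whole-cell assay for inhibitors of Mycobacterium tuberculosis growth, labelled Cornell in the record; the read-out is not stated. The concentration is filed as 10 mM, unlikely as a test dose, so the dose is not known. Higher means stronger inhibition (inferred from two other growth screens of the library). About 53,000 compounds were tested under these conditions; 1.7% (about 900) showed 50% or more at least once.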

The filed quantity is “Percent Effect” (%).
The record does not define 0% and 100%; most values in the screen are far below 50% and negative numbers occur (in some assays of this library far below -100).
Compounds were drawn at random from those tested, without regard to their results.

SMILES,effect
Cc1c(C(=O)N2CCC3(CCCNC3=O)C2)sc2nc[nH]c(=O)c12 (configuration not stated),11.99
COc1ccc(C2=Nn3c(CN)nnc3-c3ccccc3C2)cc1,29.39
COc1cc(C(C)=O)ccc1SCC(=O)Nc1cccc(C)n1,25.84
O=S(=O)(c1cc(F)ccc1F)N1CCCC1c1ccco1 (configuration not stated),32.93
O=C1CC(c2ccncc2)C2(CCN(Cc3nccs3)CC2)N1 (configuration not stated),14.57
COc1cccc(C2CCN2C(=O)c2cnccn2)c1 (configuration not stated),3.123
COCCN(C)C(=O)c1nc2c(s1)CCCN2c1ncccn1,14.01
Cc1ccc(C(C)N(C)CCS(=O)(=O)CCC(N)=O)cc1 (configuration not stated),7.196
CCN1CCC2(CC1)CN(C(=O)c1cccnc1)c1ccc(Cl)cc12.O=C(O)C(F)(F)F.O=C(O)C(F)(F)F,2.11
CCN(CC1CN(Cc2c(C)noc2C)CCO1)c1cccnn1 (configuration not stated),-28.06
CCSCCC(=O)Nc1ncn(Cc2ccccc2)n1,15.78
CCc1cc(C(=O)N2CCC(C3CCN(c4ncccn4)CC3)C2)on1 (configuration not stated),-21.79
O=C(NCCOc1ncc(Cl)cc1Cl)c1ccncc1,19.35
O=C(O)C(F)(F)F.O=C(O)C(F)(F)F.[H][C@@]12CN(Cc3ccoc3)C[C@]1([H])C(=O)N(CCN1CCCC1)C2,10.74
CC(C)CN1CC(C(=O)NCCc2ccc(OC(F)F)cc2)CC1=O (configuration not stated),-25.44
CCC(CNC(=O)c1ccco1)N1CCc2ccccc2C1 (configuration not stated),-31.92
Cc1cc(NC(=O)CN2CCn3c(nnc3C3CC3)C2)no1,0.6199
O=C(O)C1CCCN(C(=O)CCn2ccc3c(Br)cccc32)C1 (configuration not stated),25.28
Cc1cnn(CC2CCCN2Cc2nnc(C3CC3)o2)c1 (configuration not stated),-19.76
COc1ccc([C@@H]2CN(C(=O)CCn3cccn3)C[C@H]2NC(C)=O)cc1,-15.14
CC(C)CCNc1nc(C(=O)NC2CC2)cs1,44.5
CC(=O)N[C@@H]1CN(C2CCN(c3cccc(C)c3C)CC2)C[C@H]1C(C)C,16.36
Cc1ccc(CN2CC[C@@H](NS(C)(=O)=O)[C@@H]2Cc2ccncc2)o1.O=C(O)C(F)(F)F.O=C(O)C(F)(F)F,34.21
[H][C@]12CCN(c3ccc(C)nn3)C[C@@]1([H])CN(Cc1c[nH]cn1)C2,-17.47
CN(CCO)Cc1nnc(C2CCN(C(=O)c3cc[nH]c3)CC2)n1C,-19.5
CSCC[C@@H](CO)Nc1nc(-c2ccccn2)nc2c1c(C)nn2C,2.174
CC(C)Oc1ncnc2c1CCN(Cc1cccs1)CC2,25.68
CCOC1CC2(CCN(CCO)CC2)c2ccc(C)cc21 (configuration not stated),-24.5
Cc1cc(C2CCCCCN2Cc2cn(C)nc2C)no1 (configuration not stated),-19.08
CCn1nc(C)c2c1cnn2CCNS(=O)(=O)CC,-26.28
CC(=O)N1CCCN(Cc2csc(C)n2)c2ccccc21,33.55
CC(=O)c1ccc(N2CCC3(CC2)CC(=O)N(C)C3)nc1,-33.44
CC(=O)N1N=C(c2ccccc2)OC1C(=O)N(C)CCc1ccccc1 (configuration not stated),-31.51
CC(C)N1CCc2c(C#N)c(NCc3ccco3)n3cnnc3c2C1,0.9923
Cc1noc(C)c1CN(C)C(=O)c1ccc2c(c1O)OC(C)(C)C2,10.13
O=C(O)C(F)(F)F.O=C(O)C(F)(F)F.[H][C@]12CCN(C(=O)c3cccs3)CC[C@]1([H])N(CCN(C)C)CCO2,-6.279
O=C(O)C(F)(F)F.[H][C@@]12CCCO[C@]1([H])[C@H](NS(C)(=O)=O)CN2C(=O)c1ccccn1,24.81
O=C(c1cccc(NCCOc2ccc(F)cc2)c1)N1CCOCC1,0.2636
O=C(O)C(F)(F)F.[H][C@]12CCN(C(=O)c3ccncc3F)[C@@]1([H])CC[C@@H](COC)O2,24.34
Cc1cccc(C2CCCN(S(=O)(=O)c3cccnc3)C2)n1 (configuration not stated),-12.7
O=S(=O)(C1CC1)N1CCC2(CCCN(c3ncc(F)cn3)C2)C1 (configuration not stated),-8.034
COc1ccc(NC(=O)C2CCCO2)cc1OCc1cccnc1 (configuration not stated),22.21
c1csc(N2CCN(Cc3nnnn3C3CC3)CC2)n1,-30.77
[H][C@]12CCCC(=O)N[C@@]1(C)CCCCN2C(=O)c1cn2c(C)cccc2n1,-62.52
CC(=O)N1CCCC1c1cccc(Oc2ccccc2F)n1 (configuration not stated),16.34
NC(=O)CN1CC2(CCC1=O)CCN(C(=O)c1ccccc1F)CC2,-16.98
Cc1c(C(=O)N[C@@H]2CC[C@@H](N3CCCC3)[C@@H]2O)[nH]c2ccc(F)cc12,0.8278
[H][C@]12CCN(C(=O)N3CCCC3)[C@@]1([H])CCC(=O)N2Cc1ccncc1,1.315
Cn1ccc2c(C(=O)N3CCC4(CCOC4)C3)cccc21 (configuration not stated),9.163
F[C@@H]1CN(C2CCC2)C[C@@H]1OCc1nc2ncccc2[nH]1,-18.73
CCOC(C)c1nc(CN2CCN(c3ncc(C)cn3)CC2)cs1 (configuration not stated),16.57
Cc1cnn(CC(C)NCc2csc(-c3ncccn3)n2)c1 (configuration not stated),3.771
O=C1NCC2=C1C(c1ccc(O)cc1)Nc1ccccc1N2 (configuration not stated),-66.99
Cc1cnc(N2CCCC(c3ccccc3)C2)nc1-c1ncnn1C (configuration not stated),20.16
CN1CCC(N2CCOC[C@H]2c2nc(C(C)(C)C)c[nH]2)CC1,-4.445
CNc1ncc(C(=O)N[C@H]2CN(CCCSC)C[C@@H]2C2CC2)cn1,-8.771
O=C(Nc1ccc(F)cc1)C1CCN(Cc2noc(C3CC3)n2)CC1,-20.43
CC(C)c1cc(NC(=O)CN2CCNC(=O)C2)on1,7.92
CSc1c(CC(=O)O)n(C)c2ccccc12,4.94
CC(C)c1n[nH]c(C2CN(C(=O)COc3ccc(F)cc3)CCO2)n1 (configuration not stated),-1.026
Cc1csc(CNC(=O)Nc2ccc3c(c2)OCO3)n1,10.13
Cc1noc(C(C)N2CCN(c3ncnc4sccc34)CC2)n1 (configuration not stated),7.287
CC(C)C1Nc2ccccc2C(=O)N1CC(=O)Nc1nc2c(s1)CCC2 (configuration not stated),23.76
c1ccc(CN2CCC(NCCSc3cnn[nH]3)C2)cc1 (configuration not stated),26.95
COc1cc(C2C3=C(COC3=O)Nc3[nH]nc(C)c32)cc(Br)c1O (configuration not stated),101.5
Cc1nc(N2CCOCC2)nc2c1CCN(Cc1nccn1C)CC2.O=C(O)C(F)(F)F,-5.665
Cc1ccsc1-c1nccn1CCN1CCCOC1=O,-19.31
COc1ccc(NC(=O)CCC2CCCN(Cc3ncon3)C2)cc1Cl (configuration not stated),18.58
CCC(C)NC(=O)c1ccc(NC(=O)CCc2ccncc2)c(C)c1 (configuration not stated),-22.19
Cc1cc(CC(C)Nc2nc(C3CCCC3)nc3c2cnn3C)[nH]n1 (configuration not stated),-1.864
COCCN(Cc1ccco1)c1ncc(C#N)cc1Cl,13.4
Cl.Cn1cc(CN2CCN(CC3(c4ccccc4)CC3)CC2)cn1,9.021
Cn1nc(C(=O)N2CCSCC2)cc1NC(=O)c1ccccc1,2.459
O=C(c1ccc(-n2ccnc2)nn1)N1CCCC1CCc1ccccc1 (configuration not stated),3.04
Clc1snnc1CN1CCN(c2nccs2)CC1,11.94
Cc1noc(C)c1S(=O)(=O)N1CCC(n2cccn2)CC1,-6.389
Cc1nc2ccccc2nc1CN1CCc2c(nc(C3CC3)n2C)C1,22.66
CCC(C(=O)NC(C)(C)C)n1cccc(OC)c1=O (configuration not stated),-50.85
CC(C)(C)Oc1ccncc1NCc1cscn1,55.35
CN(C)C(=O)c1ccc2c(c1)N(C)C(CC(=O)NCc1ncc[nH]1)CO2 (configuration not stated),-50.36
CCCC(=O)N(C)Cc1nc(N2CCCC2)ncc1-c1ccncc1.Cl,37.2
CCn1cnnc1C1CCN(C(=O)CCCOc2ccccc2)CC1,-30.46
Cc1ccc(C(=O)NCCCNS(C)(=O)=O)cc1-n1cccc1,-2.958
COc1cccc2ccc(CN3CCN(c4cccnc4)CC3)nc12,26.29
COc1c(CNC2CCOc3ccccc32)c(C)nn1C (configuration not stated),23.56
Cn1ccnc1CN1CCOC(C)(C(=O)N2CCOCC2)C1 (configuration not stated),-34.26
CCc1nc(CN(C)C(=O)c2cc(NC(C)=O)ccc2Cl)no1,-21.96
O=C(O)C(F)(F)F.[H][C@@]12CCN(c3ncccn3)[C@@]1([H])CCN2S(=O)(=O)c1cccc(F)c1,33.21
CC(=O)N1CCC(NC(=O)N2CCCC2c2ccsc2)CC1 (configuration not stated),-7.757
NC(=O)c1ccnc(N2CCCC(CO)(Cc3ccc(F)cc3)C2)c1 (configuration not stated),-4.123
[H][C@@]12CNCC[C@]1(O)CCN(C(=O)Cc1cc(F)ccc1C)C2,-2.557
COc1ccc(Cl)cc1CS(=O)(=O)CC(=O)NC(C)CCC(C)C (configuration not stated),28.39